US20130289023A1, “METHOD FOR TREATING BRAIN TUMOR” (priority 2012, published 2013)
Some entries share one result that the patent states for a list of compounds.

Tested on: GBM8401 cells
Experiment: MTT cell viability assay in GBM8401
Conditions: read-out: IC50 value (cytotoxicity), 72 hr, FIG. 1(A)
Protocol: To examine the cytotoxicity of anti-psychotic drugs on malignant glioma, GBM8401 cells were treated with 21 anti-psychotic drugs at 10 μM, respectively, for 72 hr.

## perphenazine
  IC50: < 10 µM
